The values below come from patent US20090041783A1.

By UniProt entry, the sequences of proteins in these tests, tags left out. Where a name states a change or a piece, a line headed by the entry shows the natural chain unless it says otherwise.
UniProt P01591: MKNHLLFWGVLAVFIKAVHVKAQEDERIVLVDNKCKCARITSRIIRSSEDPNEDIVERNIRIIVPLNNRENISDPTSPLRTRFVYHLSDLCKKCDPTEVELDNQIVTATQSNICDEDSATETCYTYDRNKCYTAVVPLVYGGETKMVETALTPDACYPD

The assay addresses cynomolgus monkey platelet GPVI on monkey platelets (cynomolgus monkey). Kind of assay: flow cytometry on cynomolgus monkey platelets, 3-4 µg/mL antibody, anti-human IgM-FITC.

No constants are given. Whether binding was seen depends on the method and setting. Some entries that bind do so weakly or less than the wild type.

On to “mouse/human chimeric IgM-type F1232-37-2, cF1232-37-2 (IgM) (from UniProt P01591 23-159) (antibody)”, for which the binding entry is recorded as “binds”.
